Test system: mouse brain, dopaminergic neurons
Assay: MRI imaging of mouse brain after injection of tracer
Type: in vivo
From the text: The central figure is a chimera directly comparing the left hemisphere of the control with the right hemisphere of the TP-TEMPO treated. In this central image the “Y” shaped region (1) is where the dopaminergic neurons are found.
With its dependence on the more biologically variable parameters of proton density, longitudinal relaxation time (T1), and transverse relaxation time (T2), variable image contrast can be achieved by using different pulse sequences and by changing the imaging parameters. Signal intensities on T1, T2, and proton density-weighted images relate to specific tissue characteristics. Moreover, with MRI's multi-planar capability, the imaging plane can be optimized for the anatomic area being studied, and the relationship of lesions to eloquent areas of the brain can be defined more accurately. Since T2-weighted images are most sensitive for detecting brain pathology, patients with suspected intracranial disease are typically screened using the T2-weighted regime. However, it has proven difficult to apply MRI to Parkinson's disease, as the dompaminergic neurons have the same MRI characteristics as the surrounding tissues, so that the Parkinson's lesions are invisible using conventional MRI and can only be detected using histology post-mortem. […]

CN1CC=C(C2CC(C)(C)N(O)C(C)(C)C2)CC1 [TP-TEMPO, 2,2,6,6-tetramethyl-4-(1-methyl-1,2,3,6-tetrahydropyridin-4-yl)piperidin-1-oxyl] was tested, and the “time after administration of optimal signal to noise ratio” value (mice imaged at 24, 48 and 72 hours after injection) was 48 h and the “MRI images of brain, proton-water MRI signals” value (mice, 24 hours after injection) was “unable to show any proton-water MRI signals”.
